# Source: the supplement of paper PMC12889115
# The list shows a part of the results. Values are raw readings; no control value is given beside them.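 First-pass screen: polymyxin B was added at a level that permeabilizes the Salmonella outer membrane while sparing the inner membrane. DMSO wells, with and without polymyxin B, defined maximum growth. Because plates differed from one another, each plate's data were ranked separately and the compounds with the lowest OD600 were carried forward as hits.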
# System: Salmonella enterica serovar Typhimurium SL1344
# Assay: bacterial growth OD600 after 18 h with compound and polymyxin B; higher = more bacterial growth (less inhibition)
# Details: 50 µM, Mueller-Hinton broth
SMILES,bacterial growth OD600 (polymyxin B 0.75 µg/mL),bacterial growth OD600 (polymyxin B 1 µg/mL)
O=C(NC1CCOC1)c1cc(Cl)ccc1OC1CCN(C2CCCC2)CC1 (stereo unspecified),0.779,
O=C(C1CCOCC1)N1CCCC(CCc2ccccc2)C1 (stereo unspecified),0.739,
COC(C(=O)Nc1ccnn1C1CCN(C(=O)CCC(F)(F)F)CC1)c1ccccc1 (stereo unspecified),,0.894
OC1CCN([C@@H]2CCN(Cc3cnn(-c4ccc(F)cc4)c3)C[C@H]2O)CC1,,1.09
Cc1nc(CN2CC[C@@H](N3CCN(CCc4ccccc4)CC3)[C@H](O)C2)c[nH]1,,1.02
O=C(c1ccc(-c2ccccc2)c(F)c1)C1CCCN(C(=O)CCC(F)(F)F)C1 (stereo unspecified),,0.801
CC(C)NC(=O)NCc1cccnc1Oc1cccc(C(F)(F)F)c1,0.124,
COc1ccc(OC)c(C2CCN(C(=O)c3cn(CCN4CCCCC4)nn3)C2)c1 (stereo unspecified),,1.08
Cc1oc(-c2ccccc2NC(=O)C2CCC2)nc1CNC(=O)C(C)Oc1cccc(Cl)c1 (stereo unspecified),0.006,
COCc1ccc(C(=O)NC(C)c2cnn(-c3ccccc3C)c2C)o1 (stereo unspecified),,0.765
COc1cc(CNC(=O)CCN2Cc3cc(Cl)ccc3OC(C)C2)cc(OC)c1OC (stereo unspecified),0.837,
O=C(NCc1ccc(F)cc1)c1ccc(OC2CCN(C(=O)C3CC3)CC2)cc1,,1.01
Cc1ccc2c(c1)CN(CCNC(=O)CSc1ccccc1)CC(C)O2 (stereo unspecified),0.795,
Cc1ccc(CN(C)c2ccc(C(=O)NCCC3CCCCN3C)cn2)o1 (stereo unspecified),,0.91
O=C(CCCn1cncn1)N1CCOc2ccc(CN3CCC(OCc4ccccc4)CC3)cc2C1,0.858,
Cc1cn2c(C(=O)N(C)CC3CCCN(CCc4ccccc4F)C3)csc2n1 (stereo unspecified),0.892,

SMILES,bacterial growth OD600 (polymyxin B 0.75 µg/mL),bacterial growth OD600 (polymyxin B 1 µg/mL)
Fc1ccccc1OC1CCN(Cc2nc(-c3ccccn3)no2)CC1,0.792,
CO[C@H]1[C@H](NC(=O)c2ccccn2)c2ccccc2C12CCN(C(=O)C#Cc1ccccc1)CC2,-0.003,
COc1ccc(CNC2Cc3ccccc3C2)c(OCC(O)CN2CCCC2)c1 (stereo unspecified),,1.07
CC(C)Cc1cn[nH]c1C1CCCN(Cc2cnn(-c3ccc(F)cc3)c2)C1 (stereo unspecified),0.847,
COc1ccc2c(c1)-c1nc(-n3ncc(C(=O)N4CCN(C5CCCC5)CC4)c3C3CC3)ncc1CC2,0.778,
c1ccc(NC2CCCN(Cc3cc4ccccc4o3)C2)cc1 (stereo unspecified),,1.13
COc1ccc(-c2cn3c(C(=O)NCCC(C)C)csc3n2)cc1F,,1.14
CCN1CCN(c2ccc(C(=O)NCCCn3ccnc3C(C)C)cn2)CC1,,0.973
OCCC1CN(Cc2ccc(O)cc2)CCN1CC1CCCCC1 (stereo unspecified),,0.988
COCCCC1CCN(Cc2c(C(=O)N3C[C@@H](C)O[C@@H](C)C3)nc3sccn23)CC1,,0.902
C1CCC(CNc2nc3nonc3nc2N2CCOCC2)(N2CCOCC2)C1,0.848,
O=C(NC1CC(=O)N(Cc2ccccc2Cl)C1)c1ccsc1 (stereo unspecified),,0.85
CCn1nc(C)c(CN2CCC(C(Cc3ccc(F)cc3F)N(C)C(=O)c3ccco3)CC2)c1C (stereo unspecified),0.96,
COc1ccc2c(c1)OC(C)CN(C(=O)c1ccc(C(F)(F)F)cc1)C2 (stereo unspecified),0.73,
O=C(c1ccc(C(F)(F)F)cc1)N1CCCC(CO)(Cc2ccccc2F)C1 (stereo unspecified),,0.593

# Record cards (already shown):
# CCN1CCN(c2ccc(C(=O)NCCCn3ccnc3C(C)C)cn2)CC1 reads bacterial growth OD600 (polymyxin B 1 µg/mL): 0.973
# Cc1nc(CN2CC[C@@H](N3CCN(CCc4ccccc4)CC3)[C@H](O)C2)c[nH]1 reads bacterial growth OD600 (polymyxin B 1 µg/mL): 1.02
